From the supplement of paper PMC12823440, “Inhibitors supercharge kinase turnover through native proteolytic circuits” (Nature, 2025)
This is one part of the list. The calls rarely recur for the same compound in another form.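 Kinases were expressed as nanoluciferase fusions in K562 cells and luminescence was read every 4 h between 2 and 18 h as percent of control, DMSO set to 100% and a positive control to 0%. A time point counts as decreased when the signal drops significantly (2 sigma). The hit call is the authors' own, does not follow from the count of time points alone, and its rule is not shown.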

By UniProt entry, the sequences of proteins in these tests, tags left out.
UniProt Q15303, whole entry R711C: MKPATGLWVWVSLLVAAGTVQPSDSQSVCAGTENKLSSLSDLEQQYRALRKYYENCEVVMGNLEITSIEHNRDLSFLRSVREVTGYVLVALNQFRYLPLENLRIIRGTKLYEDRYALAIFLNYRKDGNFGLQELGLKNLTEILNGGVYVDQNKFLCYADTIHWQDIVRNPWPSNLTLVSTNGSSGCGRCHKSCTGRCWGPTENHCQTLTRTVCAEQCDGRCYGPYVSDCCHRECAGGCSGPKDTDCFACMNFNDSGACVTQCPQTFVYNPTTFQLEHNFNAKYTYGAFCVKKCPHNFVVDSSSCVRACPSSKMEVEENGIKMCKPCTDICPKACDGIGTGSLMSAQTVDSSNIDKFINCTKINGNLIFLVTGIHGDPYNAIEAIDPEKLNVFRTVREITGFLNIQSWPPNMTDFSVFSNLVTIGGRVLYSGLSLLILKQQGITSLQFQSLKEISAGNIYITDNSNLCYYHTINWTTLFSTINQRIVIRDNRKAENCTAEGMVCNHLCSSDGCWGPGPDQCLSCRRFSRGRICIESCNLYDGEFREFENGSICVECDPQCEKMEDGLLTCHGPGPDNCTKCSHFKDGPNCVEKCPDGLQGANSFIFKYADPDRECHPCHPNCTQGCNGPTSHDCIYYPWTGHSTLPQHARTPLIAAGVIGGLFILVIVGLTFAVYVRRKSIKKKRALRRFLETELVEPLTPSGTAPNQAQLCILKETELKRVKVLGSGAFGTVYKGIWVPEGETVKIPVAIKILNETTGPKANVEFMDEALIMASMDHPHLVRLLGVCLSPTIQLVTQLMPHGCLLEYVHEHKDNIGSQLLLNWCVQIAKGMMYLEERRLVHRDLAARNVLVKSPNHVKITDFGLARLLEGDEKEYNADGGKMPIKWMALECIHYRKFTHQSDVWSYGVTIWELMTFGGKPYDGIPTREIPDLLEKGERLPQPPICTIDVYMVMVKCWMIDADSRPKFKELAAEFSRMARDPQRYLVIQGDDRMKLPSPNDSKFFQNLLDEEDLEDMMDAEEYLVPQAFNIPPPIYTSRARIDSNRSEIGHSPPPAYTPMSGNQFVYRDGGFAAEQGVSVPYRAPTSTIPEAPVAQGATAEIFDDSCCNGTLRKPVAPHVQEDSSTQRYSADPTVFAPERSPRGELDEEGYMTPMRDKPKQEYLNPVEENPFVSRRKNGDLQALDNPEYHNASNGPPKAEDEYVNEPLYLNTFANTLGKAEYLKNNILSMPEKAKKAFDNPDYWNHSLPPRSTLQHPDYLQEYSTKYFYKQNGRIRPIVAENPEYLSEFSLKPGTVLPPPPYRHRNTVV

Molecular target: ERBB4_R711C (clone: ERBB4_mut) (UniProt Q15303)
Assay: kinase-Nluc reporter destabilization hit call (1 = scored as downregulated) (binary); higher = compound decreases kinase abundance
Conditions: K562; 2-18 h

kinase-Nluc reporter destabilization hit call, inactive:
Cn1nc(C(C)(C)C)cc1NC(=O)Nc1ccc(Oc2ccncc2)cc1 (10 µM) 0
COc1ccc(F)c(F)c1C(=O)c1cnc(NC2CCN(S(C)(=O)=O)CC2)nc1N (2.5 µM) 0
COc1cc(C(=O)NC2CCN(C)CC2)ccc1Nc1ncc2c(n1)N(C1CCCC1)CC(F)(F)C(=O)N2C (10 µM) 0
CCN1C(=O)N(c2c(F)c(OC)cc(OC)c2F)Cc2cnc3[nH]c(CN4CCOCC4)cc3c21 [Pemigatinib] (10 µM) 0
COc1cc(Oc2ccnc3cc(OC)c(OC)cc23)ccc1NC(=O)NC(C)c1nccs1 (stereo not drawn) (2.5 µM) 0
C=CC(=O)N1C[C@H](Nc2ncnc3[nH]ccc23)CC[C@@H]1C [Ritlecitinib] (10 µM) 0
CC(C)(C)S(=O)(=O)c1cc2c(Nc3ccc4scnc4c3)ncnc2cc1OCCO (2.5 µM) 0
O=C(NOC[C@H](O)CO)c1ccc(F)c(F)c1Nc1ccc(I)cc1F (2.5 µM) 0
Cc1cccc([C@@H](CO)NC(=O)[C@@H](C)N2Cc3ccc(-c4nc(NC5CCOCC5)ncc4Cl)cc3C2=O)c1 [ERK1/2 inhibitor 1] (10 µM) 0
CNC(=O)c1cc(Oc2ccc(NC(=O)Nc3cc(C(C)(C)C)nn3-c3ccc4ncccc4c3)c(F)c2)ccn1 [Rebastinib] (2.5 µM) 0
CCCn1cnc2c(NCc3ccccc3)nc(NC(CC)CO)nc21 (stereo not drawn) [Ca2+ channel agonist 1] (2.5 µM) 0
Brc1c(Br)c(Br)c2n[nH]nc2c1Br (10 µM) 0
C=CC(=O)Nc1cccc(Nc2nc(Nc3ccc(OCCOC)cc3)ncc2F)c1 [Spebrutinib] (10 µM) 0
CC(C)=CC/C=C(\C)[C@H]1CC[C@]2(C)[C@@H]1[C@H](O)C[C@@H]1[C@@]3(C)CC[C@H](O[C@@H]4O[C@H](CO)[C@@H](O)[C@H](O)[C@H]4O[C@@H]4O[C@H](CO)[C@@H](O)[C@H](O)[C@H]4O)C(C)(C)[C@@H]3CC[C@]12C [Ginsenoside Rg5] (10 µM) 0
Cc1ncc(-c2ccnc(Nc3ccc(S(C)(=O)=O)cc3)n2)n1C(C)C (2.5 µM) 0
CN(C)CCOc1ccc(-c2nc(-c3ccncc3)c(-c3ccc4c(c3)CC/C4=N\O)[nH]2)cc1 (10 µM) 0
CCN(CCCOc1ccc2c(Nc3cc(CC(=O)Nc4cccc(F)c4)[nH]n3)ncnc2c1)CCOP(=O)(O)O [Barasertib] (10 µM) 0
C=CC(=O)N[C@H]1COC[C@H]1Nc1ncc2cc(-c3c(Cl)c(OC)cc(OC)c3Cl)c(=O)n(C)c2n1 (10 µM) 0

Fetched one by one from the list above:
kinase-Nluc reporter destabilization hit call, inactive:
COc1ccc(F)c(F)c1C(=O)c1cnc(NC2CCN(S(C)(=O)=O)CC2)nc1N (2.5 µM) 0
CN(C)CCOc1ccc(-c2nc(-c3ccncc3)c(-c3ccc4c(c3)CC/C4=N\O)[nH]2)cc1 (10 µM) 0
